Data on 5 targets can be found in the supplement of paper PMC6411743.

Amino acid sequences for entries named in this document (tags omitted). A change or cut given only in a name is not applied to a line headed by its entry.
UniProt Q8N9N7: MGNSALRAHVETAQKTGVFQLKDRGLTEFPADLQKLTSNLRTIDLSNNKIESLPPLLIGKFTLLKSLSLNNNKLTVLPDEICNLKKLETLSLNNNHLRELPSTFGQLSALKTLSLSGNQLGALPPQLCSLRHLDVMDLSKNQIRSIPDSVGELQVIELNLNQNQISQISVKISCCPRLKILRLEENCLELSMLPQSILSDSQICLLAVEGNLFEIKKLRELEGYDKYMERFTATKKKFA
UniProt Q8WXB1: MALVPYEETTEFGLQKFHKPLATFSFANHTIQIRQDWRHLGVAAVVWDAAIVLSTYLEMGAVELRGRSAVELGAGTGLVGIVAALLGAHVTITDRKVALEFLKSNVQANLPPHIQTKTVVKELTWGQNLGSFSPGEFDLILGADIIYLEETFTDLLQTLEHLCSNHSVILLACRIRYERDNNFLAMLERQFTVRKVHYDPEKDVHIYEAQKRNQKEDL
UniProt P43034: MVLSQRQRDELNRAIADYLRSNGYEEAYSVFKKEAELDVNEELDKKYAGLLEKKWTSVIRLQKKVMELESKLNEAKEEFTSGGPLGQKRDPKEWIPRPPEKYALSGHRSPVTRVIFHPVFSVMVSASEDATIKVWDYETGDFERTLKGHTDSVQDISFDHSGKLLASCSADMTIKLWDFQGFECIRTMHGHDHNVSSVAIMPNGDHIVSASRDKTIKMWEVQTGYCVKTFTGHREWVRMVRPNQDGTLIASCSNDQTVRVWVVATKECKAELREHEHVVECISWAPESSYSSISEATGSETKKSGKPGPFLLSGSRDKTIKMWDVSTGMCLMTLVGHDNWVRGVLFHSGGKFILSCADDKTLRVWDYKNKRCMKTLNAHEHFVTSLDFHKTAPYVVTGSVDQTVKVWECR
UniProt Q96GD4, whole entry: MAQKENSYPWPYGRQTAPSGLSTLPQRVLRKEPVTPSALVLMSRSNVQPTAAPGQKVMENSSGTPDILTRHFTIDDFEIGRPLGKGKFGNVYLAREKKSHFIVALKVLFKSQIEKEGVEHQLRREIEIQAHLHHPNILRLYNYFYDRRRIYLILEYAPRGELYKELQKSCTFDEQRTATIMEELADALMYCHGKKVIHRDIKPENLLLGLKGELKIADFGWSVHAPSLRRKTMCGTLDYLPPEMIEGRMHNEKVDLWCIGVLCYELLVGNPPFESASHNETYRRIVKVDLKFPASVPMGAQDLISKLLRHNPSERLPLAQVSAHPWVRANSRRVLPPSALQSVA
UniProt Q15637: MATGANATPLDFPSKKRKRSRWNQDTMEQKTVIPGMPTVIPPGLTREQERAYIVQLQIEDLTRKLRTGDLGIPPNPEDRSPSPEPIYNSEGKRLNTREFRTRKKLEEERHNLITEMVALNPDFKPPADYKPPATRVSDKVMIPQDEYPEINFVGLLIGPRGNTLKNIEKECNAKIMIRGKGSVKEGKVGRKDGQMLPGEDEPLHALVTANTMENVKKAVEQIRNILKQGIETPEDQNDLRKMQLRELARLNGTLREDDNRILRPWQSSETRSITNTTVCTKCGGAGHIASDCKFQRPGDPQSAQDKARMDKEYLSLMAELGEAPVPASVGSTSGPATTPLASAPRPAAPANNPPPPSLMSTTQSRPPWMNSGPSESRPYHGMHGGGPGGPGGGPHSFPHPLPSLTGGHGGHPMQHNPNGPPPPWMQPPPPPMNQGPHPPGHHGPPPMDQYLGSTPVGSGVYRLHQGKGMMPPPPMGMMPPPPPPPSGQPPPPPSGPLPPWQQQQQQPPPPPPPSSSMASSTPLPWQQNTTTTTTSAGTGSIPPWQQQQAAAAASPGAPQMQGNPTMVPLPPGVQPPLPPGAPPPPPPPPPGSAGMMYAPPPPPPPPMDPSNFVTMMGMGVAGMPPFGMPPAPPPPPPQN

Compound in this assay: Nc1nc2c(ncn2[C@@H]2O[C@H](COP(=O)(O)OP(=O)(O)OP(=O)(O)O)[C@@H](O)[C@H]2O)c(=O)[nH]1 [guanosine triphosphate]
Briefly: NP40-soluble protein abundance relative to vehicle (solubility fold change) (ratio); higher = more soluble protein in presence of GTP. The protocol:
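Solubility proteome profiling in Jurkat crude lysate. Lysate was treated with Mg-GTP (0.1-10 mM) for 10 min at room temperature and 3 min at 37 °C, then solubilised with 0.8% NP40 and benzonase, followed by ultracentrifugation. Proteins were quantified by TMT10 LC-MS/MS; the value is the NP40-soluble abundance relative to the NP40-processed vehicle, from 3 independent experiments.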

± gives the standard deviation of the averaged measurements. The list shows a part of the results.

With “H3BSW0 and related entries (UniProt Q8N9N7)”, the NP40-soluble protein abundance runs as follows: (concentration: 0.1mM) 0.984 ± 0.013; (concentration: 0.5mM) 1 ± 0.038; (concentration: 1mM) 0.957 ± 0.028; (concentration: 2mM) 0.914 ± 0.022; (concentration: 4mM) 0.884 ± 0.041; (concentration: 6mM) 0.89 ± 0.029. Besides, the NP40-soluble protein abundance reads like this: (concentration: 8mM) 0.915 ± 0.03; (concentration: 10mM) 0.896 ± 0.024.

Regarding “H7BXH9 and related entries (UniProt Q8WXB1)”, the NP40-soluble protein abundance (concentration: 0.1mM) was 1.04 ± 0.13; the NP40-soluble protein abundance (concentration: 0.5mM) was determined as 1.02 ± 0.12; the NP40-soluble protein abundance (concentration: 1mM) stood at 0.885 ± 0.047; the NP40-soluble protein abundance (concentration: 2mM) worked out at 0.976 ± 0.23; the NP40-soluble protein abundance (concentration: 4mM) was found to be 0.96 ± 0.17; the NP40-soluble protein abundance (concentration: 6mM) amounted to 0.869 ± 0.079. In addition, the NP40-soluble protein abundance turned out to be 0.876 ± 0.023 (concentration: 8mM) and 0.965 ± 0.078 (concentration: 10mM).

Regarding “I3L3N5 and related entries (UniProt P43034)”, the NP40-soluble protein abundance runs as follows: (concentration: 0.1mM) 0.977 ± 0.014; (concentration: 0.5mM) 0.987 ± 0.054; (concentration: 1mM) 0.91 ± 0.018; (concentration: 2mM) 0.921 ± 0.023; (concentration: 4mM) 0.915 ± 0.0099; (concentration: 6mM) 0.9 ± 0.03. Also, the NP40-soluble protein abundance was 0.909 ± 0.044 (concentration: 8mM) and 0.885 ± 0.027 (concentration: 10mM).

Take “J3KRF8 and related entries (UniProt Q96GD4)”: the NP40-soluble protein abundance by setting is: (concentration: 0.1mM) 1.09 ± 0.035; (concentration: 0.5mM) 1.14 ± 0.099; (concentration: 1mM) 1.13 ± 0.054; (concentration: 2mM) 1.15 ± 0.11; (concentration: 4mM) 1.18 ± 0.14; (concentration: 6mM) 1.32 ± 0.12. For the same target, the NP40-soluble protein abundance runs as follows: (concentration: 8mM) 1.32 ± 0.092; (concentration: 10mM) 1.34 ± 0.11.

Take “H7C561 and related entries (UniProt Q15637)”: the NP40-soluble protein abundance came out at 0.897 ± 0.015 (concentration: 0.1mM); 0.927 ± 0.046 (concentration: 0.5mM); 1.01 ± 0.011 (concentration: 1mM); 1 ± 0.07 (concentration: 2mM); 0.982 ± 0.017 (concentration: 4mM); 1 ± 0.055 (concentration: 6mM). For the same target, the NP40-soluble protein abundance by setting is: (concentration: 8mM) 1.02 ± 0.039; (concentration: 10mM) 1.068 ± 0.0068.
